Results are given in words; binding and its absence hold for the method and conditions named. Binding calls can cover weak binding; strength is not graded here.
Biological target: IL-32 (isotype not stated, analyte of the SPR experiment) (UniProt P24001)
Assay: SPR, IL-32 injected at 100 to 1.23 nM (FIG. 8)

Amino acid sequences for entries named in this document (tags omitted). A change or cut given only in a name is not applied to a line headed by its entry.
UniProt P24001: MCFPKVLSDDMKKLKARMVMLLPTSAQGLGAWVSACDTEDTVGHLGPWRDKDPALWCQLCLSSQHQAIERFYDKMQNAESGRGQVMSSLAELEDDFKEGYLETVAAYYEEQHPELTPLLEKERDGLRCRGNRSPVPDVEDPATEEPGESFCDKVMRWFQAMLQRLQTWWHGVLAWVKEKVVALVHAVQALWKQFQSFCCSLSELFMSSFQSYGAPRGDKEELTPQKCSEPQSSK

B1: anti-IL-32 antibody 2C2 (IgG3, lambda) (antibody, V domains shown)
VH: QLRVQESGPGLLKPAETLSLTCSVSSGSVSNSRYYWAWIRQSPGKGLEWIGSMYYRGRSYYNPSLKSRLTISIDTSKNQFSLKLTSLTAADTAVYYCAAAVYHDLDYWGQGTLVTVSS
VL: QSVLTQPPSVSAAPGQKVTISCSGSGSSIGNNYVSWYQQLPGAAPKLLIYDNTKRPSGIPDRFSGSKSGTSATLAITGLQPGDAADYYCGTWDSSFSVFWVFGGGTKLTVLS
- binding: binds

Reference: patent publication US20190112367A1
